Data taken from PMC10131585, “Computational design of a cyclic peptide that inhibits the CTLA4 immune checkpoint” (RSC Medicinal Chemistry, 2023).

Key:
[1] = inferred by the authors from failed/successful synthesis and number of charged/hydrophobic residues
[2] = system: LLC tumors in mouse lungs; test: LLC mouse lung allograft model; format: in vivo
[3] = system: Lewis lung carcinoma (LLC) cells; test: Cytotoxicity of antigen-primed CD8+ T cells to LLC cells in co-culture (flow cytometry); format: cell-based, mouse; conditions: for Ratio of dead LLC cells to total LLC cells: mean ± SD (n = 2); for Effect in co-culture of LLC and antigen-primed T cells (in words): LLC cells with antigen-primed CD8+ T cells

## CC[C@H](C)[C@@H]1NC(=O)[C@H](CCC(=O)O)NC(=O)[C@H](CO)NC(=O)[C@H](Cc2ccc(O)cc2)NC(=O)[C@H](CCCNC(=N)N)NC(=O)[C@H](CCCCN)NC(=O)[C@H](C)NC(=O)[C@H](C(C)C)NC(=O)[C@H](Cc2c[nH]c3ccccc23)NC(=O)CNC(=O)[C@H]([C@@H](C)O)NC(=O)[C@@H]2CCCN2C(=O)[C@H]([C@@H](C)O)NC(=O)[C@H](CC(C)C)NC(=O)[C@H](C(C)C)NC(=O)[C@H]([C@@H](C)O)NC(=O)[C@H](CC(=O)O)NC1=O [Peptide 16]
[1]
  Solubility (in words): much greater solubility
[2]; 10 mg kg^−1 per day, intraperitoneal, with JAWS-irrLLC, control 5 out of 6
  Mice with tumor nodules (out of group): 4 out of 5
[2]; 10 mg kg^−1 per day, intraperitoneal, with JAWS-irrLLC, mean ± SD (n = 5–6), control JAWS-irrLLC only 3.50 ± 2.57
  Number of tumor nodules: 1.60 ± 0.80
[2]; Lewis lung carcinoma allograft, mice, listed as cyc(EIDTVLTPTGWVAKRYS)
  Tumor growth in vivo (in words): inhibited tumor growth
[3]; 10 μmol L^−1, 18 h (time from Fig. 8 legend), LLC:AP-CD8+ T cells 1:16, PBS control 12.7 ± 0.3, p < 0.05
  Ratio of dead LLC cells to total LLC cells: 43.8 ± 3.0%
[3]; 10 μmol L^−1, 36 h, not significant
  Ratio of dead LLC cells to total LLC cells: 68.2 ± 12.3%
[3]
  Effect in co-culture of LLC and antigen-primed T cells (in words): promoted the cytotoxic effect of antigen-primed CD8^+ T cells
[3]; listed as cyc(EIDTVLTPTGWVAKRYS)
  Effect in co-culture of LLC and antigen-primed T cells (in words): inhibited tumor growth
